In patent US20250214975A1, “PEPTIDYL FLAVOR MODIFIERS” (Ohio State Innovation Foundation, priority 2022, published 2025):

Assay: Quantification of the chalkiness compound isomers in brewed coffee by standard addition (MRM)
Settings: for Concentration HB Coffee: high body (HB) coffee, body score=7.5; for Concentration LB Coffee: low body (LB) coffee, body score=4.8
Excerpt: In preparation for sensory validation, ((2R,5S)-2-isobutyl-3,8,dioxo-1,4-diazocane-5-carbonyl)-L-tryptophyl-L-histidine was quantified using standard addition in both the high body coffee (body score=7.5), as well as in the lowest body coffee from the original sample set (body score=4.8) (Table 3).

With “((2R,5S)-2-isobutyl-3,8,dioxo-1,4-diazocane-5-carbonyl)-L-tryptophyl-L-histidine [Isomer 1]” the “Concentration HB Coffee” value was 0.366 mg/L and the “Concentration LB Coffee” value was 0.03 mg/L.

In the case of “((2R,5S)-2-isobutyl-3,8,dioxo-1,4-diazocane-5-carbonyl)-L-tryptophyl-L-histidine [Isomer 2]”, the “Concentration HB Coffee” value is reported as 0.477 mg/L and the “Concentration LB Coffee” value is reported as 0.03 mg/L.
